Patent publication US7981915B2, “Methods for modulating PPAR biological activity for the treatment of diseases caused by mutations in the CFTR gene” (Beth Israel Deaconess Medical Center, priority 2003, dated 2011)
At least one compound was matched to its structure with a doubt left.

Assays:
[1] = system: calcium channels (sarcoplasmic reticulum); conditions: cardiac myocytes; nanomolar concentrations; cited from earlier work
T84 colon cancer cells = conditions: cited from earlier work
lung inflammation = conditions: cftr−/− mice, dietary DHA, after Pseudomonas LPS challenge; cited from earlier work
bile duct injury = conditions: cftr−/− mice, oral DHA; cited from earlier work
[2] = system: fast sodium channels (plasma membrane); conditions: cardiac myocytes; nanomolar concentrations; cited from earlier work
TNFα = assay: LPS-induced TNFα secretion from peritoneal macrophages incubated in vitro with PPAR agonists; format: cell-based, mice; conditions: in vitro 12 hours, DHA 5 μM, Wy14643 50 μM, rosiglitazone 10 μM
Experimental: (§1) Cftr^−/− exon 10 knockout mice and wild-type (WT) littermates were maintained on peptamen (as described above). Peritoneal macrophages were induced by intraperitoneal injection of 2 ml thioglycollate broth followed by harvesting of the macrophages 4 days after injection. For studies determining the effect of in vivo pretreatment of DHA, cftr^−/− mice were given 40 mg DHA/day for 10 days. For in vitro experiments, harvested macrophages were plated in RPMI medium with 10% serum and incubated for 12 hours with media alone or with DHA (5 μM), EPA (5 μM) the PPAR agonist Wy14643 (50 μM) or the PPAR agonist rosiglitazone (10 μM). The cells were washed and then stimulated with 0-10000 ng/ml LPS for 4.5 hours. TNFα and IL-6 secretion were measured by ELISA. Fatty acids were analyzed by GC/MS.

PPARα/RXR = molecular target: T1, PPARα/RXR (Mus musculus, UniProt P23204); assay: EMSA of PPARα/RXR binding to the PPAR response element, peritoneal macrophages; format: in vivo; conditions: cftr−/− mice, DHA treatment
T1 construct: endogenous in cells; host or cells: thioglycollate-induced mouse peritoneal macrophages
T1 sequence (P23204 1-468): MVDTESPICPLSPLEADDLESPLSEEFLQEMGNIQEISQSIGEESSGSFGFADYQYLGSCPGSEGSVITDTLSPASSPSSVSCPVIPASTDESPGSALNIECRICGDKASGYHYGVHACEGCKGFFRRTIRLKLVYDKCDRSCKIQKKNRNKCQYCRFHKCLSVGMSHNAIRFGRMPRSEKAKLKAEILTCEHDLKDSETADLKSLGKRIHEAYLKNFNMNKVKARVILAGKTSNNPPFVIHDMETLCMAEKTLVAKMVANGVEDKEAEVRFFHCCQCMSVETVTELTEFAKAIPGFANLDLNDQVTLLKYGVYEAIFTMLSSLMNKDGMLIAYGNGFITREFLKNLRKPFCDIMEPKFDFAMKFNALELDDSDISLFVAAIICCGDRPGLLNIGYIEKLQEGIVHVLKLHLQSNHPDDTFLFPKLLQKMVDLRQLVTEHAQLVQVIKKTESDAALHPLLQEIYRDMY
T1 sequence (P28700 1-467 partner): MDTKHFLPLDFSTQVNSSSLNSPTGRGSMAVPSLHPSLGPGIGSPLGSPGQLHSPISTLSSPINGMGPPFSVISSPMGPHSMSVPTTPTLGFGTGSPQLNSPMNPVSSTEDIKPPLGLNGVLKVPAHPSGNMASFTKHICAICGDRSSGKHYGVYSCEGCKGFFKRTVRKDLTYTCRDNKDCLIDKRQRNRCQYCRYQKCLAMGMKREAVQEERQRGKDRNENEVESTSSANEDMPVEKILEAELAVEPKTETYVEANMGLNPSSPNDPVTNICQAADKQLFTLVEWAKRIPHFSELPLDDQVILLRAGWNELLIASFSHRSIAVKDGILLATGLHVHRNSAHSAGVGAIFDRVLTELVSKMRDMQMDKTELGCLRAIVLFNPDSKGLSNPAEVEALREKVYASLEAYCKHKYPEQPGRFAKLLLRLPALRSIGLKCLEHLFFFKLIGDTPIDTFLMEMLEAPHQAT

[3] = cftr−/− mice, oral DHA; cited from earlier work
ileum = conditions: cftr−/− mice, DHA treatment; cited from earlier work
IL-6 [4] = assay: LPS-induced IL-6 secretion from peritoneal macrophages after in vivo DHA pretreatment; design: species or system mice; conditions: CF peritoneal macrophages; oral DHA pretreatment 40 mg/day for 10 days
Experimental: as §1

PPARγ mRNA = assay: Liver PPARγ mRNA by quantitative RT-PCR (DSS colitis / DHA); format: in vivo; conditions: WT and cftr−/− mice; addition of DHA, no DSS
Experimental: (§2) On day 40, WT and cftr^−/− mice were fed Peptamen alone or Peptamen plus 125 mg DSS/day (MP Biomedicals, Aurora, Ohio) for 5 days followed by 9 days of 85 mg DSS/day as previously described for the genesis of bile duct injury (Blanco, P. G. et al., supra). The amount of DSS in Peptamen was equally measured for WT and cftr^−/− mice. The volume of Peptamen administered (20 ml) was measured on a daily basis. There was no difference in Peptamen intake between WT and cftr^−/− mice. The mean weight of WT mice at the start of DSS treatment was 20.5 g (range 14.5-26 g), and the mean weight of cftr^−/− mice was 18.9 g (range 15.5-23.5 g). […] Bile duct injury was quantified, as previously described, by examining histological features of epithelial injury, bile duct proliferation, and bile duct angulation (Blanco et al., supra). […]
After each specific treatment, the mice were euthanized with carbon dioxide. […] PPAR mRNA analyses were performed by quantitative RT-PCR. Total RNA from cftr^−/− and WT tissues was prepared using the RNA STAT-60 isolation reagent (Tel-Test, Friendswood, Tex.) and quantified spectrophotometrically. Quantitative PCR was performed in an ABI Prism 7700 Sequence Detector (Applied Biosystems, Foster City, Calif.) using a RT-PCR master mix kit (Applied Biosystems) according to the manufacturer's instructions. […] All samples were analyzed in duplicate.

NFκB = NFκB activity in peritoneal macrophages after oral DHA; format: in vivo, mice; conditions: wild type and cftr−/− macrophages
PPARα = molecular target: T2, PPARα (Mus musculus, UniProt P23204); assay: Western blot of PPARα in nuclear and cytosolic liver extracts; format: in vivo; conditions: 3 mice per group
T2 construct: from tissue; host or cells: mouse liver homogenate (WT and cftr-/- C57/BL6)
T2 sequence (P23204 1-468): T1 sequence (P23204 1-468)
Experimental: as §2, with “g). These values were not statistically different between WT and cftr^−/− mice. […] There was no difference in weight lost during DSS treatment comparing WT and cftr^−/− mice.” for “g).”
For western blotting, nuclear and cytoplasmic extracts were prepared as described previously (Ollero et al., supra). […] Protein concentration was measured in all samples by the Bradford protein assay (Bio-Rad, Hercules, Calif.). […]

IL-6 [5] = assay: LPS-induced IL-6 secretion from peritoneal macrophages incubated in vitro with PPAR agonists; format: cell-based, mice; conditions: CF macrophages; in vitro 12 hours; Wy14643 50 μM, rosiglitazone 10 μM; 100 ng/ml LPS

SMILES | activation of calcium channels [1] | cAMP-stimulated chloride conductance (T84 colon cancer cells) | carbachol-stimulated chloride conductance (T84 colon cancer cells) | TNFα, MIP-2, or KC (lung inflammation) | eicosanoids PGE2, 6-keto-PGF1α, PGF2α, and thromboxane B2 (lung inflammation) | lung inflammation, neutrophil concentration in broncho-alveolar lavage (lung inflammation) | development of bile duct injury in response to DSS induced colitis (histology, serum alkaline phosphatase) (bile duct injury) | activation of fast sodium channels [2] | decrease in LPS induced TNFα secretion (TNFα; CF macrophages, EPA 5 μM, 100 ng/ml LPS) | decrease in LPS induced TNFα secretion (TNFα; WT macrophages) | PPARα/RXR binding to the PPAR response element (PPARα/RXR) | fatty acid defect and pathology in CF affected organs [3] | villi height in the ileum (ileum) | LPS-induced IL-6 secretion (IL-6 [4]) | liver PPARγ mRNA levels (PPARγ mRNA) | NF-κB activity in peritoneal macrophages (NFκB) | PPARα nuclear/cytoplasmic ratio, liver (densitometry) (PPARα; WT mice) | PPARα nuclear/cytoplasmic ratio, liver (densitometry) (PPARα; cftr−/− mice) | decrease in LPS induced IL-6 secretion (IL-6 [5])
CC/C=C\C/C=C\C/C=C\C/C=C\C/C=C\C/C=C\CCC(=O)O [DHA, Docosahexaenoic Acid] | activate | without affecting | enhances | No significant effects | selective decrease | reduces lung inflammation | prevent the development of bile duct injury | activate | results similar to DHA pretreatment | did not alter secretion | normalized | corrected this fatty acid defect and reversed the pathology | decreases villi height | but not IL-6 secretion | no significant change | decreased the activity | 0.41±0.09 | 0.54±0.06 | 
CN(CCOc1ccc(CC2SC(=O)NC2=O)cc1)c1ccccn1 (stereo not shown) [rosiglitazone] |  |  |  |  |  |  |  |  |  |  |  |  |  |  |  |  |  |  | neither affecting IL-6 secretion
